# Results as given in patent US9233978B2, “6-fused heteroaryldihydropyrimidines for the treatment and prophylaxis of hepatitis B virus infection” (Hoffmann-La Roche Inc., priority 2014, dated 2016).
# Some of these results come from one statement about several compounds together.
# Assay: Lysa solubility
# Assay type: physicochemical
# Conditions: 0.05 M phosphate buffer (pH 6.5)
# Experimental: Samples were prepared in duplicate from 10 mM DMSO stock solutions. After evaporation of DMSO with a centrifugal vacuum evaporator, the residue was solved in 0.05 M phosphate buffer (pH 6.5), stirred for one hour and shook for two hours. After one night, the solution was filtered using a microtiter filter plate. Then the filtrate and its 1/10 dilution were analyzed by direct UV measurement or by HPLC-UV. […] The results were in μg/mL. In case the percentage of sample measured in solution after evaporation divided by the calculated maximum of sample amount was over 80%, the solubility was reported as higher than this value.
row,Structure (SMILES),Lysa
1,"CCOC(=O)C1=C(CN2CCN3C(=O)N(C4CC4)C[C@H]3[C@@H]2C(=O)O)NC(c2nccs2)=N[C@H]1c1cccc(F)c1Cl (single isomer, unassigned) [Example 82A]",> 765 µg/mL
2,"CCOC(=O)C1=C(CN2CCN3C(=O)N(C4CC4)C[C@@H]3[C@H]2C(=O)O)NC(c2nccs2)=N[C@H]1c1cccc(F)c1Cl (single isomer, unassigned) [Example 82B]",> 760 µg/mL
3,"COC(=O)C1=C(CN2CCN3C(=O)OC(C)(C)[C@]3(CC(=O)O)C2)NC(c2nccs2)=N[C@H]1c1ccc(F)cc1Cl (single isomer, unassigned) [Example 90A]",> 730 µg/mL
4,"COC(=O)C1=C(CN2CCN3C(=O)OC(C)(C)[C@@]3(CC(=O)O)C2)NC(c2nccs2)=N[C@H]1c1ccc(F)cc1Cl (single isomer, unassigned) [Example 90B]",> 740 µg/mL
